Among the data in paper PMC3643677 are binding values, retold here.

Chains of the proteins cited; added tags and fusions are not shown.
UniProt P40763: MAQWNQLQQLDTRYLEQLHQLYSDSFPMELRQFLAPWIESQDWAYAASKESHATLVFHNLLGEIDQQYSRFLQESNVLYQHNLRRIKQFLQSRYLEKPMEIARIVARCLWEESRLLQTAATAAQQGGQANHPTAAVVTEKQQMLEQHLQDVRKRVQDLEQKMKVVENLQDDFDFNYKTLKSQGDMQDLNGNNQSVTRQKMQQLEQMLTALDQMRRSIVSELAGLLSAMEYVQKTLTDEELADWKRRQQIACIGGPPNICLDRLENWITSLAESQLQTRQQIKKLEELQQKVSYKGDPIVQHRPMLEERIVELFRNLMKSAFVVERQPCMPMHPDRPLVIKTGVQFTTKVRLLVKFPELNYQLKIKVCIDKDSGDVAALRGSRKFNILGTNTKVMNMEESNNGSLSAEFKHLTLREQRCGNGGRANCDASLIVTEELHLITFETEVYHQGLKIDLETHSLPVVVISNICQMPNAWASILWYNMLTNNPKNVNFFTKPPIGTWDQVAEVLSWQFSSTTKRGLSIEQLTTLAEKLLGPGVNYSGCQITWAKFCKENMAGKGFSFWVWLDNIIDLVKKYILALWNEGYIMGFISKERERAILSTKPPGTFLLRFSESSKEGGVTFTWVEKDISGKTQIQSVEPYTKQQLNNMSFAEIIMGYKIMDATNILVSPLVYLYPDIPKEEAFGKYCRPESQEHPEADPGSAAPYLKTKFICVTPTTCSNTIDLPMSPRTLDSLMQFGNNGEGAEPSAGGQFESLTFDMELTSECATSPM
UniProt P07355: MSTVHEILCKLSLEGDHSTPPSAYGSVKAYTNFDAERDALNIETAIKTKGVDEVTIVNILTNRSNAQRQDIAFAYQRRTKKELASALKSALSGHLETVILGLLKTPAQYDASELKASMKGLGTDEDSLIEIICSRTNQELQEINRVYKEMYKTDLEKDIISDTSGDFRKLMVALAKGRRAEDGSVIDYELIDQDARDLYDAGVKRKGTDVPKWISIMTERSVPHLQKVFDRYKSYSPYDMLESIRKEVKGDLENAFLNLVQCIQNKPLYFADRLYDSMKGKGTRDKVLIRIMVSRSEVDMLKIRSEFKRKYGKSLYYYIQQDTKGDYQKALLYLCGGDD

Results are given in words; binding and its absence hold for the method and conditions named. In cells and extracts the contact can be indirect. Some results given as binding are weak or reduced against the parent protein; the word gives no strength.

For assay [1], the target named is signal transducer and activator of transcription-3 (human (endogenous in SK-BR-3)) (UniProt P40763). The assay is described as follows: co-IP; SK-BR-3 whole-cell lysate; immunoprecipitated with anti-Stat3 or anti-Anxa2 antibody and protein A/G (protein G-Sepharose) beads overnight; lysis buffer 50 mM Tris pH 7.4, 10% glycerol, 0.1% SDS, 10 mM NaF, 2 mM PMSF, 1 mM dithiothreitol; immunoblot.

Assay [2] has as its target Annexin A2 (human (endogenous in SK-BR-3)) (UniProt P07355). Described as above.

Annexin A2 (from UniProt P07355 1-339): the binding result in assay [1] is “binds”.

As for “signal transducer and activator of transcription-3 (from UniProt P40763 1-770)”, the binding entry in assay [2] is listed as “binds”.
